These are yes or no findings as the source states them, for the method shown. In cells and extracts the contact can be indirect. Some results given as binding are weak or reduced against the parent protein; the word gives no strength.
Key:
[1] = target: Annexin A2 (human (endogenous in U2-OS)) (UniProt P07355); assay: co-IP; untransfected U2-OS cells; IP of endogenous ANXA2 with ANXA2 antibody (1 mg total lysate protein, 2 ug antibody), immunoblot
[2] = target: HA-TRIM21 (tripartite motif containing-21) (UniProt P19474); assay: co-IP; U2-OS cells transfected with HA-vector or HA-TRIM21; IP with HA antibody (1 mg total lysate protein, 2 ug antibody), immunoblot of the immune complexes
[3] = target: Annexin A2 (human (endogenous in U2-OS)) (UniProt P07355); assay: co-IP; U2-OS cells stably expressing H125-V or H125-TRIM21, after TET (10 ug/ml); IP with IgG and ANXA2 antibodies, immunoblot

Amino acid sequences for entries named in this document (tags omitted).
UniProt P07355: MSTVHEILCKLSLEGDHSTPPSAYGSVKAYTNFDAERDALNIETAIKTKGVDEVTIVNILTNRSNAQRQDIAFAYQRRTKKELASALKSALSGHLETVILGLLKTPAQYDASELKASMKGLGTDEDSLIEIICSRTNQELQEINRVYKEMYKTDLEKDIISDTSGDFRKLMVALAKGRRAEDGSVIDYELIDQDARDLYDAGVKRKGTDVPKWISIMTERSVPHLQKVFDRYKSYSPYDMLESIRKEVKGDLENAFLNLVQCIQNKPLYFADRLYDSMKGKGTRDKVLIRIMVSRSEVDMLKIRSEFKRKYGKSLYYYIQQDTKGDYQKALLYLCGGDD
UniProt P19474: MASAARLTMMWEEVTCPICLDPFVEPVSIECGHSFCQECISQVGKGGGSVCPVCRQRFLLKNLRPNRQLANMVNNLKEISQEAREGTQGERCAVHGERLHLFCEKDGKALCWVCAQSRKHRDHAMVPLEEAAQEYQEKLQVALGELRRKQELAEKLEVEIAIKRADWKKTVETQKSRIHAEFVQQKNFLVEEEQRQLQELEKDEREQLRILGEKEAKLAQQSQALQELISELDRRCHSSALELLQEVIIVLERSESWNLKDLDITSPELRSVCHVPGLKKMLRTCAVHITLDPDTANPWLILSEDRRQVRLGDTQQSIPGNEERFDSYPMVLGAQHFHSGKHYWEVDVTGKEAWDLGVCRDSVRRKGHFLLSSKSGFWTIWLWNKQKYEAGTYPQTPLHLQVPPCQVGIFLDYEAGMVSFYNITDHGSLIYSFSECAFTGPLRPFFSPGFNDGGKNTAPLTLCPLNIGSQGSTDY
UniProt Q14457: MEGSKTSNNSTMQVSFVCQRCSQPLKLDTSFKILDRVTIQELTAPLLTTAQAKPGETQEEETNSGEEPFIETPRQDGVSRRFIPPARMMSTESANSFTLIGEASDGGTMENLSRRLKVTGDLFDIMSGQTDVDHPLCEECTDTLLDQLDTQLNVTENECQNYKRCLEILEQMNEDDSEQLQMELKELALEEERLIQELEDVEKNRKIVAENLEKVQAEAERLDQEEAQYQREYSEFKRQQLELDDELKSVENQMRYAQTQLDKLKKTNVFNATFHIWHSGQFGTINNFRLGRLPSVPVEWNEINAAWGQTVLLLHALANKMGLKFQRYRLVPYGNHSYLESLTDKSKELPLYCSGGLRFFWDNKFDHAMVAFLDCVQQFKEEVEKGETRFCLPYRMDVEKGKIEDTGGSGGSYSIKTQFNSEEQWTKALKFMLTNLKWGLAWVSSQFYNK

Row | binding [2] | Substance | also measured
1 |  | endogenous TRIM21 (tripartite motif containing-21) (from UniProt P19474 1-475) | binding [1]: binds
2 | binds | Beclin 1 (from UniProt Q14457 1-450) | 
3 |  | TRIM21 expressed from H125-TRIM21 (tetracycline-induced) (from UniProt P19474 1-475) | binding [3]: binds
4 | binds | Annexin A2 (from UniProt P07355 1-339) | 

From PMC7790825
